No constants are given. Whether binding was seen depends on the method and setting. In cells and extracts the contact can be indirect. Some results given as binding are weak or reduced against the parent protein; the word gives no strength.
How the values were obtained:
Test in all cases: co-IP
[1] = molecular target: T1, REPS1 (human (endogenous in FOCUS)) (UniProt Q96D71)
T1 sequence: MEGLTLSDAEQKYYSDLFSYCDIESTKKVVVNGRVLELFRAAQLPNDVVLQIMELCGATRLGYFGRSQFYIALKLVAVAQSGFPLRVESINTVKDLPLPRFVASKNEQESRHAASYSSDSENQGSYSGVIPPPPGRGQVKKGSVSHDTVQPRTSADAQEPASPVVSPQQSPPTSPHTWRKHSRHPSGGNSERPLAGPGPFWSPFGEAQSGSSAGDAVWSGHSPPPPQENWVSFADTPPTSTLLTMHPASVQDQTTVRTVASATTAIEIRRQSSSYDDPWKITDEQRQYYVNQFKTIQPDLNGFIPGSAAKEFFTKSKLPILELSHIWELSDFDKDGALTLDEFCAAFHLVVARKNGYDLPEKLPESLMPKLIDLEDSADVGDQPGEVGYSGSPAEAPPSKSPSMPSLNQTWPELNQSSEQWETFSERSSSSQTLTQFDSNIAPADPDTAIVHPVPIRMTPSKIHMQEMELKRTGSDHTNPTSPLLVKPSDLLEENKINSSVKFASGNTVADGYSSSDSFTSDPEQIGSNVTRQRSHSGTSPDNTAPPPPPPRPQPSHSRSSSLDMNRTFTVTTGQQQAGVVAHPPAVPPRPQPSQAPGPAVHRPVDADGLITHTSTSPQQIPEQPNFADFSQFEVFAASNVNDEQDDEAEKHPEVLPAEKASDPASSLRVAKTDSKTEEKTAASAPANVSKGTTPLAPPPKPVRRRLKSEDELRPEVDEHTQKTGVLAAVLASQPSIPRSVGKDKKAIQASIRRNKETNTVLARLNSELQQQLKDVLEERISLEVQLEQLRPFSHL

Protein sequences, listed by entry. Tags and fused reporters are not part of them.
UniProt Q2M2I8: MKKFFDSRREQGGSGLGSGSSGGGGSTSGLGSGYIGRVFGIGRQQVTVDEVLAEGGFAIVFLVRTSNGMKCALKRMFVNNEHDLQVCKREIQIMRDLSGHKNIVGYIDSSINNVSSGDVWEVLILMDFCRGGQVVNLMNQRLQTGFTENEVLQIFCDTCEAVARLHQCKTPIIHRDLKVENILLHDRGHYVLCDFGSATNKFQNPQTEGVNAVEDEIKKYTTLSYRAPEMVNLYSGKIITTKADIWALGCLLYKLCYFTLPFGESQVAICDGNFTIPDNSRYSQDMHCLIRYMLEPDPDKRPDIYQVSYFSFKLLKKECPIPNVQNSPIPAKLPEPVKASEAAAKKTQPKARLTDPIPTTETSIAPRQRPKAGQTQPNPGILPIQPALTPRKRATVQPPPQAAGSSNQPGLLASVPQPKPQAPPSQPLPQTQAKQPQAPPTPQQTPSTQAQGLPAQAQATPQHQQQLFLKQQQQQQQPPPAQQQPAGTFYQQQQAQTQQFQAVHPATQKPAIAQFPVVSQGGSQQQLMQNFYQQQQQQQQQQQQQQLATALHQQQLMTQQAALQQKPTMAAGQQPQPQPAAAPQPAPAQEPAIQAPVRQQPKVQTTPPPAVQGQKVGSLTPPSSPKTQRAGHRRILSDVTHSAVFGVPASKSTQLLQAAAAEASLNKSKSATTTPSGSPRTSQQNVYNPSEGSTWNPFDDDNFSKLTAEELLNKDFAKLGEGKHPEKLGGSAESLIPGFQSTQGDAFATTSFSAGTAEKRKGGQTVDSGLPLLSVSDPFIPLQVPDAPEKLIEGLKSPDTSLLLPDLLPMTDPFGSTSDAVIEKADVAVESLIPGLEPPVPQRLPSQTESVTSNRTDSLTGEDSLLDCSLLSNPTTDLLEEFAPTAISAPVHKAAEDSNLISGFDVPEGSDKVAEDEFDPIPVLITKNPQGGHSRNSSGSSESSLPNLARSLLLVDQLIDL
UniProt Q15311: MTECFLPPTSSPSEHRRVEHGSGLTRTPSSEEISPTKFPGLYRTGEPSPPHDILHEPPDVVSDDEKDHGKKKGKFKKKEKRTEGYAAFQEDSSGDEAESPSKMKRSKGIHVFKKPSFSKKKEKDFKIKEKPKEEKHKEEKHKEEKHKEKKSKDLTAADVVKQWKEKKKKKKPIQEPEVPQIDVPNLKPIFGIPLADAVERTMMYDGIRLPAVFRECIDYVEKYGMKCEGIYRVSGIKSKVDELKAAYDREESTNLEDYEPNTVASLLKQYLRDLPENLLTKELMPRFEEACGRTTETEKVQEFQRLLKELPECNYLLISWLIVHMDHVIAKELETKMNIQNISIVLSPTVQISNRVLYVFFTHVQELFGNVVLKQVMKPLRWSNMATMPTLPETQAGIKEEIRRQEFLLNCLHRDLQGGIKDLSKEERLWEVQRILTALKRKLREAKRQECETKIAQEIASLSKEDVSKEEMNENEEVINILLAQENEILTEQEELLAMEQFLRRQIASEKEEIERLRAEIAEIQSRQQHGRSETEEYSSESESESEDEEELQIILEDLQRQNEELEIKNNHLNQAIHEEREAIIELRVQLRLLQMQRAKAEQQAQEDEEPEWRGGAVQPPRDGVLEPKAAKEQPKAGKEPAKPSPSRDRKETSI

[2] = molecular target: adapter-associated kinase 1 (AAK1) (human (endogenous in FOCUS)) (UniProt Q2M2I8)
[3] = molecular target: RALBP1 (human (endogenous in FOCUS)) (UniProt Q15311)

| Molecule | binding [1] | binding [2] | binding [3] |
| --- | --- | --- | --- |
| RALBP1 (from UniProt Q15311 1-655) | binds | binds | – |
| adapter-associated kinase 1 (AAK1) (from UniProt Q2M2I8 1-961) (enzyme) | binds | – | binds |
| REPS1 (protein, UniProt Q96D71 1-796) MEGLTLSDAEQKYYSDLFSYCDIESTKKVVVNGRVLELFRAAQLPNDVVLQIMELCGATRLGYFGRSQFYIALKLVAVAQSGFPLRVESINTVKDLPLPRFVASKNEQESRHAASYSSDSENQGSYSGVIPPPPGRGQVKKGSVSHDTVQPRTSADAQEPASPVVSPQQSPPTSPHTWRKHSRHPSGGNSERPLAGPGPFWSPFGEAQSGSSAGDAVWSGHSPPPPQENWVSFADTPPTSTLLTMHPASVQDQTTVRTVASATTAIEIRRQSSSYDDPWKITDEQRQYYVNQFKTIQPDLNGFIPGSAAKEFFTKSKLPILELSHIWELSDFDKDGALTLDEFCAAFHLVVARKNGYDLPEKLPESLMPKLIDLEDSADVGDQPGEVGYSGSPAEAPPSKSPSMPSLNQTWPELNQSSEQWETFSERSSSSQTLTQFDSNIAPADPDTAIVHPVPIRMTPSKIHMQEMELKRTGSDHTNPTSPLLVKPSDLLEENKINSSVKFASGNTVADGYSSSDSFTSDPEQIGSNVTRQRSHSGTSPDNTAPPPPPPRPQPSHSRSSSLDMNRTFTVTTGQQQAGVVAHPPAVPPRPQPSQAPGPAVHRPVDADGLITHTSTSPQQIPEQPNFADFSQFEVFAASNVNDEQDDEAEKHPEVLPAEKASDPASSLRVAKTDSKTEEKTAASAPANVSKGTTPLAPPPKPVRRRLKSEDELRPEVDEHTQKTGVLAAVLASQPSIPRSVGKDKKAIQASIRRNKETNTVLARLNSELQQQLKDVLEERISLEVQLEQLRPFSHL | – | binds | binds |
| REPS2 (protein, UniProt Q8NFH8 1-660) MEAAAAAAAAAAAAAAAGGGCGSGPPPLLLSEGEQQCYSELFARCAGAAGGGPGSGPPEAARVAPGTATAAAGPVADLFRASQLPAETLHQITELCGAKRVGYFGPTQFYIALKLIAAAQSGLPVRIESIKCELPLPRFMMSKNDGEIRFGNPAELHGTKVQIPYLTTEKNSFKRMDDEDKQQETQSPTMSPLASPPSSPPHYQRVPLSHGYSKLRSSAEQMHPAPYEARQPLVQPEGSSSGGPGTKPLRHQASLIRSFSVERELQDNSSYPDEPWRITEEQREYYVNQFRSLQPDPSSFISGSVAKNFFTKSKLSIPELSYIWELSDADCDGALTLPEFCAAFHLIVARKNGYPLPEGLPPTLQPEYLQAAFPKPKWDCQLFDSYSESLPANQQPRDLNRMEKTSVKDMADLPVPNQDVTSDDKQALKSTINEALPKDVSEDPATPKDSNSLKARPRSRSYSSTSIEEAMKRGEDPPTPPPRPQKTHSRASSLDLNKVFQPSVPATKSGLLPPPPALPPRPCPSQSEQVSEAELLPQLSRAPSQAAESSPAKKDVLYSQPPSKPIRRKFRPENQATENQEPSTAASGPASAATMKPHPTVQKQSSKQKKAIQTAIRKNKEANAVLARLNSELQQQLKEVHQERIALENQLEQLRPVTVL | binds | binds | binds |
